Test results published in PMC11881160 (International Journal of Nanomedicine, 2025).
Where two headings read alike, the source gives them in different places. Marks after values point to notes of the source that are not given here.

Key:
[1] = PBPK model input; ref Chemical book; cited from earlier work
[2] = rats
[3] = tested on: CYP450s of Rat Liver Microsomes (RLMs); assay: In vitro CYP450 metabolism of ATV and inhibition by LUT in rat liver microsomes; settings: mean ± SD, n = 3
[4] = formation of 2-OH-ATV in RLMs, ATV + 5μM LUT
[5] = formation of 2-OH-ATV in RLMs, ATV + 10μM LUT
[6] = formation of 2-OH-ATV in RLMs, ATV without LUT
[7] = formation of 4-OH-ATV in RLMs, ATV + 5μM LUT
[8] = formation of 4-OH-ATV in RLMs, ATV + 10μM LUT
[9] = formation of 4-OH-ATV in RLMs, ATV without LUT

In the case of `CC(C)c1c(C(=O)Nc2ccccc2)c(-c2ccccc2)c(-c2ccc(F)cc2)n1CC[C@@H](O)C[C@@H](O)CC(=O)O` [ATV, Atorvastatin], the Drug particle density [1] is listed as 1.23 ± 0.1^d g/mL, the “Increase of Cmax of ATV” value ([2]; co-administered with LUT versus ATV alone) is listed as 1.87 fold and the “Increase of Cmax of ATV” value ([2]; co-administered with LUT-NS-LP versus ATV alone) is listed as 5.42 fold. For the same compound, the Km [3, 4] was 6.51 ± 0.27 µM, the Vmax [3, 4] was 16.99 ± 0.26 pmol/min/mg and the Km [3, 5] was 5.56 ± 0.22 µM. It also gave a Vmax [3, 5] of 13.66 ± 0.05 pmol/min/mg, a Km [3, 6] of 6.55 ± 0.1 µM and a Vmax [3, 6] of 22.27 ± 0.16 pmol/min/mg. The Km [3, 7] was 13.1 ± 3.1 µM, the Vmax [3, 7] was 16.95 ± 2.20 pmol/min/mg and the Km [3, 8] was 15.7 ± 2.37 µM. It also gave a Vmax [3, 8] of 12.04 ± 1.03 pmol/min/mg, a Km [3, 9] of 4.5 ± 0.14 µM and a Vmax [3, 9] of 23.75 ± 0.64 pmol/min/mg.
